Some of the results follow.
Tested on: T1, CTL2-GFP (C. trachomatis L2/434/Bu, GFP-expressing)
T1 construct: L2/434/Bu, GFP-expressing
Parameters: species or system HeLa; Intracellular C. trachomatis growth in HeLa cells, bulk GFP fluorescence relative to DMSO
Details: bulk GFP, single well; 28.5 h, 10 µM; inhibitor

SMILES | % of control remaining
CC(C)(C)OC(=O)NCCc1ccc(Nc2cc(-c3ccsc3)ncn2)cc1 [CBK090958] | 116.756%
COc1cccc(CN2CCC3(CC2)c2[nH]c4ccc(OCc5ccccc5)cc4c2CCN3C=O)c1 [CBK040462] | 106.469%
Cc1cc(C)c(S(=O)(=O)Nc2ccc(S(=O)(=O)Nc3ccc(Cl)cc3Cl)cc2)c(C)c1 [CBK266022] | 54.4082%
COc1ccc(-c2cc(C(=O)NCc3ccc(N)cc3)cnc2-c2cccc(C)c2)cc1 [CBK036728] | 175.873%
CC(=O)c1ccc(O)c2ncccc12 [CBK015821] | 127.653%
Cc1cc(C(=O)NCc2ccnc(N3CCOCC3)c2)c(C)n1-c1cccc(Cl)c1 [CBK298301] | 116.177%
CC(C)(C)NC(=O)CN1CCC(c2ccc(F)cc2)CC1 [CBK283629] | 117.533%
Cc1cc(CN(C)Cc2c(C)nc3c(C)cccn23)n[nH]1 [CBK281716] | 108.867%
COc1cccc(C2C(C(=O)c3ccc(Br)cc3)=C(O)C(=O)N2CCN2CCOCC2)c1OC (centres unmarked) [CBK264855] | 126.349%
Nc1ncnc2c1cnn2[C@H]1C[C@@H](O)[C@@H](CO)O1 [CBK201325] | 149.762%
O=C1COc2ccccc2C/C=C/CC2(CCN(C(=O)CCn3ccnc3)CC2)CN1 [CBK292131] | 115.138%
O=C(Nc1sc2c(c1C(=O)O)CCC2)c1ccco1 [CBK152436] | 118.322%
NCC1CCN(c2cc(C(F)(F)F)c3scc(C(=O)NCCC4=CCCCC4)c3n2)CC1 [CBK028475] | 113.201%
O=C(NC1CCCOC1)c1cc(-c2ccc(F)cc2)no1 (centres unmarked) [CBK283141] | 96.4398%
CN(CCCc1cc(-c2cccc(F)c2)n[nH]1)C(=O)c1cnn(C)c1 [CBK305745] | 97.9818%
CN(Cc1nnc(C2CC2)n1C)C1CCN(CCCc2cn[nH]c2)C1 (centres unmarked) [CBK305305] | 112.337%
O=C(NC1(c2ccccc2)CC1)c1cccc(-n2cnnc2)c1 [CBK282779] | 73.4334%
CSc1ncc(C(=O)N2CCC(N3CCCC(O)C3)CC2)cn1 (centres unmarked) [CBK307055] | 105.25%
COc1cc(/C=N/NC(=O)CSc2n[nH]c(=O)[nH]c2=O)ccc1O [CBK263513] | 94.8153%
Cn1nccc1CN1CCOC(c2nc(C(C)(C)C)cs2)C1 (centres unmarked) [CBK304690] | 122.329%
O=C(CSc1n[nH]c(=O)n1C1CC1)NCCCSc1ccccc1 [CBK295620] | 140.872%
Cn1ccc(NC(=O)c2cccc(S(=O)(=O)N3CCCC3)c2)n1 [CBK306032] | 102.019%
c1ccc2c(c1)CC(Oc1cncc(N3CCNCC3)n1)C2 [CBK000242G] | 110.627%
O=C(/C=C/c1cccnc1)Nc1cncc(OC2CCNCC2)n1 [CBK038919T] | 113.651%
CCOC(=O)c1sc(-c2ccccc2)nc1C [CBK074204] | 108.232%
Nn1c(SCC(=O)Nc2ccc3c(c2)OCO3)nnc1-c1ccccn1 [CBK267550] | 104.961%
Cc1nccn1CC1(O)CCN(C(=O)CCc2ccccc2F)CC1 [CBK284689] | 132.216%

Some of these compounds in order of SMILES length, largest number first.
SMILES | % of control remaining
Cc1cc(C)c(S(=O)(=O)Nc2ccc(S(=O)(=O)Nc3ccc(Cl)cc3Cl)cc2)c(C)c1 [CBK266022] | 54.4082%
CN(Cc1nnc(C2CC2)n1C)C1CCN(CCCc2cn[nH]c2)C1 (centres unmarked) [CBK305305] | 112.337%
Cc1nccn1CC1(O)CCN(C(=O)CCc2ccccc2F)CC1 [CBK284689] | 132.216%

In another format: two of the compounds above.

| SMILES | % of control remaining |
| --- | --- |
| COc1cccc(C2C(C(=O)c3ccc(Br)cc3)=C(O)C(=O)N2CCN2CCOCC2)c1OC (centres unmarked) [CBK264855] | 126.349% |
| Nc1ncnc2c1cnn2[C@H]1C[C@@H](O)[C@@H](CO)O1 [CBK201325] | 149.762% |

(list continues)

SMILES | % of control remaining
CCOc1ccc(-c2nnn(CC(N)=O)n2)cc1 [CBK068283] | 108.195%
CC(C)(C)OC(=O)N1CCN(c2cc(NCc3ccccc3)ncn2)CC1 [CBK000137] | 97.5818%
CC(C)c1ccc(C(C)NC(=O)Cn2cc(C(=O)Nc3ccc(F)cc3)ccc2=O)cc1 (centres unmarked) [CBK286049] | 118.649%
CCOc1ccc(C)cc1S(=O)(=O)NCCc1c(C)[nH]c2c(Cl)cccc12 [CBK268859] | 141.714%
NC(=O)CN1C(=O)CO[C@H]2CN(Cc3cnc4ccccc4c3)C[C@H]21 [CBK289242] | 141.112%
COCCn1c(CN2CCC(Cc3ccccc3)CC2)nc2c1c(=O)n(C)c(=O)n2C [CBK269378] | 149.835%
COc1ccccc1N(CC(O)CN1C(C)CCCC1C)S(=O)(=O)c1ccccc1 (centres unmarked) [CBK265585] | 127.136%
CNC(=S)NCc1ccncc1 [CBK020033] | 110.16%
COc1ccc(C(C)C)cc1-c1cncc(NCC(c2cccnc2)N(C)C)n1 (centres unmarked) [CBK037132] | 91.4399%
COCCNC(=O)N[C@H](Cc1ccccc1)C(=O)O [CBK286667] | 129.715%
CCn1c(C(C)C)nc2cc(NC(=O)Cc3c(C)noc3C)ccc21 [CBK281527] | 131.897%
O=C(O)c1cc(NC(=O)c2ccccc2[N+](=O)[O-])cc(C(=O)O)c1 [CBK262135] | 100%
COc1ccc(S(=O)(=O)N2CCC(C(=O)N(C)C(c3cnccn3)c3ccccc3C)CC2)cc1 (centres unmarked) [CBK060210] | 132.727%
CCn1nc(C)c(C(C)NC(=O)c2ccn(C(F)F)n2)c1C (centres unmarked) [CBK281534] | 145.578%
CC(C)c1ccc(/C=C/C(=O)NCc2ccc(S(N)(=O)=O)cc2)cc1 [CBK161511] | 120.238%
Nc1[nH]ncc1-c1nnc(Nc2ccc3c(c2)OCO3)o1 [CBK288537] | 118.55%
COc1ccc(C(C)C)cc1-c1cncc(N(C)CCN(C)C)n1 [CBK065364] | 119.931%
NC(=O)[C@H]1C[C@@H](O)[C@H](O)[C@H]2[C@@H]1S/C(=N\c1ccccc1)N2Cc1cccs1 [CBK288944] | 105.554%
Cc1c(-c2cc(-c3cnn(C)c3C)[nH]n2)cnn1C [CBK288013] | 124.534%
FC(F)(F)c1cccc(CN2CCN(CCc3ccccc3)CC2)c1 [CBK126421] | 105.208%
CC(C)OC(=O)c1nnn(-c2nonc2N)c1CN1CCCCCC1 [CBK027601] | 117.586%
CCOC(=O)c1c(NC(=O)NCc2cccnc2)sc2c1CCC2 [CBK307585] | 143.439%
COc1cc(-c2ccc(Nc3cccnc3)nc2)cc(OC)c1OC [CBK037704] | 217.929%
O=C(CO)N1CC2(CCN(CCS(=O)(=O)c3ccccc3)CC2)c2ccccc21 [CBK131505] | 94.9364%
COc1cccc(OCC(=O)Nc2ccccc2C(=O)O)c1 [CBK286819] | 124.691%
COc1ccc(C2OCCN2C(C)=O)cc1 (centres unmarked) [CBK004536] | 121.906%
CCc1nc2ccc(NC(=O)CCCc3ccncc3)cc2[nH]1 [CBK283268] | 70.3294%

SMILES | % of control remaining
c1cnc(NCc2cc3n(n2)CCN(CC2CCCNC2)C3)nc1 (centres unmarked) [CBK306981] | 122.968%
Cc1ccc2nsnc2c1NC(=O)CSc1nccn1C [CBK269411] | 105.304%
CCN(Cc1ccncc1)C(=O)NCCN1CCOCC1 [CBK145055] | 106.495%
CC(=O)N1CCc2sccc2C1c1ccc(NCc2ccc(F)cc2F)cc1 (centres unmarked) [CBK286455] | 134.964%
CCCc1oc(C(=O)O)cc1CN1CCOCC1 [CBK267984C] | 111.235%
CC(Cc1ccccn1)NC(=O)Cc1ccc2c(c1)CCCO2 (centres unmarked) [CBK282115] | 121.925%
Cc1nc(C)c(C(=O)NC2CCCNC2=O)s1 (centres unmarked) [CBK281628] | 130.541%
COCCNC(=O)c1cnn2c(C)c(Cc3ccccc3C(F)(F)F)c(C)nc12 [CBK165210] | 121.362%
CCOC(=O)N1CCN(S(=O)(=O)c2coc(C)c2C(=O)OC)CC1 [CBK057079] | 106.542%
CC(=O)c1cnc2nc(-c3cccnc3)nn2c1C [CBK287859] | 95.1374%
CCn1cc(CN2CCCN(C(=O)c3ccc(Cl)cn3)CC2)cn1 [CBK304760] | 125.211%
CC(=O)Nc1ccc(S(=O)(=O)Nc2nc3ccccc3nc2Nc2ccc(C(=O)O)cc2)cc1 [CBK296079] | 96.9707%
O=C(OCc1ccc2sccc2c1)N1CCOCC1 [CBK200163] | 103.092%
O=C(O)c1cc(NS(=O)(=O)c2ccc3c(c2)OCCCO3)ccc1F [CBK296731] | 144.197%
CCOC(=O)N1CCN(S(=O)(=O)c2ccc3c(c2)n(C)c(=O)n3C)CC1 [CBK304620] | 130.899%
CC(C)n1nnnc1-c1ccccc1NS(=O)(=O)c1cn[nH]c1 [CBK305542] | 111.515%
COc1cccc(-c2ccc3ccc(N)nc3n2)c1 [CBK061640] | 100%
COc1ccc(C(NC(=O)C2CCN(CCOc3ccc(Br)cc3)CC2)c2ccco2)cc1 (centres unmarked) [CBK148311] | 136.559%
O=C(Nc1ccccn1)NC1CCS(=O)(=O)C1 (centres unmarked) [CBK021330] | 151.993%
O=C(Nc1cccnc1)c1cc(C(=O)c2ccc(Cl)cc2Cl)c[nH]1 [CBK107406] | 79.0871%
C[C@@H]1CN2CCCC2CN1CCc1ccccc1 (some centres unmarked) [CBK285424] | 121.052%
Cc1cc(NS(=O)(=O)c2ccc(-c3ccon3)s2)n(C)n1 [CBK067257] | 233.037%
Cc1ncc(CN2CCCC(O)(c3ccc(F)cc3)CC2)n1C (centres unmarked) [CBK284836] | 111.376%
CC1(C)C[C@H](NC(=O)c2cccs2)[C@@]2(CCC(=O)N3CCCC3)CC[C@](C)(O)C[C@@H]12 [CBK289042] | 89.4355%
Cc1cc(Cl)ccc1NC(=O)CCC(=O)N/N=C/c1cccnc1 [CBK261945] | 90.6272%
CC(C)(C)OCc1[nH]n(CCc2ccccc2)c(=O)c1Cc1c(Cl)cccc1Cl [CBK091452] | 113.779%

Reference: article PMC12040169 (PLOS Biology, 2025)
